Source: PubChem BioAssay AID1671190 (National Center for Advancing Translational Sciences (NCATS), 2021)
Screen size: about 580,000 compounds; about 6,100 (1.1%) were called active. The shares of active, inactive and inconclusive entries below differ from those in the screen. The call rests on the fitted dose curve; in most records, active means well fitted inhibition curve with a large enough effect; inconclusive means small, poorly fitted or top-dose-only effect, or another doubt; inactive means no such curve, though single readings can be large or run the other way. Potencies beside an inconclusive call are fits to weak or partial responses and may not hold up.

Protein sequences, listed by entry. Tags and fused reporters are not part of them.
UniProt P18054, whole entry, looked up: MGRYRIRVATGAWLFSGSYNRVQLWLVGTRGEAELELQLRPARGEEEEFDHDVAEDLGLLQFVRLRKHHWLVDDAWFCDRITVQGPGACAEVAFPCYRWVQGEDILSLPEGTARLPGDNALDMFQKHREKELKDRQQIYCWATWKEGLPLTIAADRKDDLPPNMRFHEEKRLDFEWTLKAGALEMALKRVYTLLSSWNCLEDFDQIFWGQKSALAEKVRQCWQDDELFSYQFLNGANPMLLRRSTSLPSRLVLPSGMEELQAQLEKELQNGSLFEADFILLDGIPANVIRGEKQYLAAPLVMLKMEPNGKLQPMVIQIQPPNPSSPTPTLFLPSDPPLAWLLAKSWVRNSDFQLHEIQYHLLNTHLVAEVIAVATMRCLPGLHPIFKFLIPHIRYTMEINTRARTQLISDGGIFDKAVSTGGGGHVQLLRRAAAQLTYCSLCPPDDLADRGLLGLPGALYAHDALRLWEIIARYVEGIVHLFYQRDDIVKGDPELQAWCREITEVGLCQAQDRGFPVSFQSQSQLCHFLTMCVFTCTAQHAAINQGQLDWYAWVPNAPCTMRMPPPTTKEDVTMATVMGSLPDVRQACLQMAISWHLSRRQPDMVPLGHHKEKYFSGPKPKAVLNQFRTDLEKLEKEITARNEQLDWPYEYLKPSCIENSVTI

biological target: Polyunsaturated fatty acid lipoxygenase ALOX12 (Homo sapiens) (UniProt P18054); experiment: Primary qHTS assay for inhibitors of human arachidonate 12S-lipoxygenase (ALOX12): Round 2; settings: purified 12hLO, xylenol orange hydroperoxide absorbance; series mostly up to 108 µM
Summary of the method: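 Purified human 12hLO (150 nM final) in 25 mM Hepes, 0.01% Triton X-100, pH 7.0 was preincubated 15 min at room temperature with compound. Then 40 uM arachidonic acid was added, 30 min. Hydroperoxide was read by Fe-XO absorbance ratio 573/405 nm.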
Potency means the concentration at half of the fitted maximal effect.

| Compound | Potency |
| --- | --- |
| COc1cc(C2C(C(C)=O)=C(O)C(=O)N2c2ccc(C)cc2)ccc1O (configuration not stated) | inconclusive: 4.47 µM [inhibitor, full curve, poor fit] |
| CCN(c1ccccc1)S(=O)(=O)c1ccc(C(=O)N2CCOCC2)cc1 | inactive |
| CCO[C@H]1COC[C@@H]1NC(=O)c1csc(-c2cccs2)n1 | inactive |
| O=C(COC(=O)Cc1c(Cl)cccc1Cl)NCc1ccco1 | inconclusive: 25.1 µM [inhibitor, partial curve, poor fit] |
| Cc1ccc(C(=O)Nc2ccc(NC(=O)c3cccs3)cc2)cc1[N+](=O)[O-] | inactive |
| Cc1ccc(NC(=O)C2(c3cccs3)CCOCC2)cc1Cl | inactive |
| CCOc1cc(/C=C(\C#N)C(=O)Nc2cccc(C(=O)O)c2)cc(Br)c1OC(=O)c1ccc(OC)cc1 | active: 44.7 µM |
| COc1ncc2nc(-c3ccc(F)cc3)c(=O)n(Cc3ccc(F)cc3)c2n1 | inconclusive: 89.1 µM [inhibitor, partial curve, poor fit] |
| COCCCNc1nc(NCc2ccccc2OC)c2cnn(C)c2n1 | inconclusive: 50.1 µM [inhibitor, partial curve, poor fit] |
| O=C(COC(=O)c1cnccn1)Nc1ncc(Cl)cc1Cl | inconclusive: 44.7 µM [inhibitor, partial curve, poor fit] |
| CCCC1C=CCN1C(=O)c1cc(-c2ccncc2)nc2ccccc12 (configuration not stated) | inactive |
| CCC1CC(/C(C)=N/NC(N)=O)OC1=O (configuration not stated) | inactive |
| COc1ccc(CC2(CO)CCN(CC3=Cc4cc(Cl)ccc4OC3)CC2)cc1 | inconclusive: 50.1 µM [inhibitor, partial curve, poor fit] |
| CCc1cccc(NS(=O)(=O)c2c(C)nc3scc(C)n3c2=O)c1 | inactive |
| CCOc1cc(-c2ccc(C)cc2)nc2ccc(C(=O)NCC(C)O)cc12 (configuration not stated) | inactive |
| CCCCCCN1C[C@H](O)[C@@H](n2cc(C3CC3)nn2)C[C@@H]1c1ccc(C)cc1 | inconclusive: 39.8 µM [inhibitor, partial curve] |
| O=C1N(CCc2ccccc2)c2ccccc2C12CCN([S+](=O)([O-])c1cccc(C(F)(F)F)c1)C2 (configuration not stated) | inconclusive: 12.6 µM [inhibitor, full curve, poor fit] |
| Clc1ccc(Nc2nc(NC3CCCCCC3)nc3c2cnn3-c2ccccc2)cc1 | inconclusive: 50.1 µM [inhibitor, partial curve, poor fit] |
| CC(C)c1ccc(-n2ccnc(NCc3ccc(F)cc3)c2=O)cc1 | inconclusive: 31.6 µM [inhibitor, partial curve, poor fit] |
| O=C(Oc1cc(-c2ccccc2)no1)c1cccc(C(F)(F)F)c1 | inconclusive: 50.1 µM [inhibitor, partial curve, poor fit] |
| Cc1nnc(N/N=C/c2cc([N+](=O)[O-])c(N3CCC(C)CC3)cc2N2CCC(C)CC2)n1N | inconclusive: 89.1 µM [inhibitor, partial curve, poor fit] |
| CC(C)CC(OC(=O)c1cccs1)C(=O)NCc1ccco1 (configuration not stated) | inconclusive: 39.8 µM [inhibitor, partial curve, poor fit] |
| C[N+]1(C2CCC3CCC2C3O)CCCC1 (configuration not stated) | inconclusive: 89.1 µM [inhibitor, partial curve, poor fit] |

| Compound | Potency |
| --- | --- |
| Cc1cc(C)c(NC(=O)CN(C2CCCCC2)C2CCCCC2)c(C)c1 | inactive |
| CCCSC1=C(C#N)C(c2ccc(OC)cc2)C2=C(CC(C)(C)CC2=O)N1 (configuration not stated) | inactive |
| CC1CCc2c(sc(NC(=O)Cn3nc(C(F)(F)F)c4c3CCCCC4)c2C#N)C1 (configuration not stated) | inconclusive: 39.8 µM [inhibitor, partial curve] |
| COCc1nc(-c2ccc(OC3CN(Cc4cccs4)C3)cc2)no1 | inconclusive: 25.1 µM [inhibitor, full curve] |
| O=C(NCCc1ccccc1)c1nn(-c2ccccc2F)nc1CO | inactive |
| CN(C)c1nc(C(=O)OCCO)nc(N(C)C)n1 | inactive |
| CCCCC1=CC2=CC(=O)C(C)(OC(=O)c3cccs3)C(=O)C2=CO1 (configuration not stated) | active: 28.2 µM |
| O=C(/C=C/Sc1ccccc1)Nc1ccccc1 | inactive |
| Cc1cc2c(n1-c1ccc(C(=O)NCCc3ccc(Cl)cc3)cc1)CCCC2 | inconclusive: 50.1 µM [inhibitor, partial curve, poor fit] |
| Cc1cc(C)c2c(n1)sc1c(N3CCCCC3)ncnc12 | inactive |
| CCOC(=O)[C@@H](N)CCC(=O)N[C@@H](CSCc1ccccc1)C(=O)N[C@@H](C(=O)OCC)c1ccccc1 | inconclusive: 13.7 µM [inhibitor, partial curve, poor fit] |
| Cn1ccnc1C(NC(=O)c1nn(C)c(=O)c2ccccc12)c1ccc(Cl)cc1 (configuration not stated) | inconclusive: 0.158 µM [inhibitor, single point] |
| CCOC(=O)C1=C(C)N=c2s/c(=C/c3cccc([N+](=O)[O-])c3O)c(=O)n2C1c1ccccc1 (configuration not stated) | inconclusive: 11.2 µM [inhibitor, partial curve, poor fit] |
| CCc1ccc(C(=O)c2cn(CC(=O)Nc3ccc(Cl)cc3)c3cc4c(cc3c2=O)OCO4)cc1 | inactive |
| Cc1ccc(S(=O)(=O)Nc2nc(CN3CCOCC3)nc3sc(C(=O)O)c(C)c23)cc1 | inconclusive: 28.2 µM [inhibitor, partial curve] |
| N/C(=N\OC(=O)c1cc(-c2ccccc2)nc2ccccc12)c1ccncc1 | inconclusive: 35.5 µM [inhibitor, single point] |
| O=C1CC(=Nc2ccc([N+](=O)[O-])cc2)NN1c1c(Cl)cc(Cl)cc1Cl | active: 31.6 µM |
| Cc1ccc(/C=C(/C#N)c2nc(-c3ccncc3)cs2)cc1 | inconclusive: 10 µM [inhibitor, full curve, poor fit] |
| Cc1ccc(NC(=O)c2ccc3nsnc3c2)c(C)c1 | inconclusive: 50.1 µM [inhibitor, partial curve, poor fit] |
| Cc1ccc(S(=O)(=O)n2nc(C)c(S(=O)(=O)N3CCCCCC3)c2C)cc1 | inconclusive: 20 µM [inhibitor, partial curve, poor fit] |
| Cc1nc(Nc2ccc(O)cc2)c2c3c(sc2n1)CCCC3 | inconclusive: 44.7 µM [inhibitor, partial curve] |
| COC(=O)[C@@H]1Cc2ncn(C(C)C)c2CN1S(=O)(=O)c1ccccc1 | inactive |
| Oc1ccc(C[C@@H]2CNCCN2CCc2cccc3ccccc23)cc1 | inconclusive: 35.5 µM [inhibitor, partial curve] |

| Compound | Potency |
| --- | --- |
| CCCCCCCCN1C(=O)[C@@H](CC(=O)NCc2ccc(C)o2)C[C@@]2(C(=O)OC)C1=C[C@H](C1CCCC1)O[C@@H]2C | inconclusive: 44.7 µM [inhibitor, partial curve, poor fit] |
| O=C(NC1CCN(c2ccc(F)cc2)C1=O)c1cccc(Br)c1 (configuration not stated) | inactive |
| CC[C@]12c3[nH]c4cc(-c5ccco5)ccc4c3CCN1C(=O)[C@@H](CC(=O)NC/C=C(\C)CCC=C(C)C)C[C@@H]2C(=O)N1CCN(C(=O)C2CC2)CC1 | inconclusive: 50.1 µM [inhibitor, partial curve, poor fit] |
| CCc1ccccc1S(=O)(=O)N1CCN(C2(CC)CCN(C(=O)NC)C2)CC1 (configuration not stated) | inconclusive: 17.8 µM [inhibitor, full curve] |
| COc1ccc(CN2C(=Nc3ccc(Cl)cc3)S[C@H]3[C@@H]2[C@@H](O)[C@H](O)C[C@@H]3C(N)=O)cc1 | inconclusive: 31.6 µM [inhibitor, partial curve] |
| CCC1=NN2C(=N)/C(=C\c3cccn3-c3c(C)cccc3C)C(=O)N=C2S1 | inactive |
| Cc1ccc2c(c1)C(O)(CC(=O)c1ccccn1)C(=O)N2 (configuration not stated) | inconclusive: 70.8 µM [inhibitor, single point] |
| CCCS(=O)(=O)c1nc(S(=O)(=O)c2ccc(C)cc2)c(N2CCN(C)CC2)s1 | inactive |
| COc1cccc(C(=O)N2C[C@@H](CO)[C@H](c3nc(C)no3)C2)c1OC | inactive |
| COc1cc2c(cc1OC)CN(C(=O)CCCN(C)S(=O)(=O)c1ccc(F)cc1)CC2 | inactive |
| COc1ccc2c(C)cc(=O)[nH]c2c1 | inactive |
| CCCCNc1c(-c2ccc(OC)c(SC(C)CC)c2)nc2cnccn12 (configuration not stated) | inconclusive: 89.1 µM [inhibitor, partial curve, poor fit] |
| FC(F)(F)c1ccccc1Cc1c(-c2cccc(Br)c2)nc2ccc(Cl)cn12 | inconclusive: 70.8 µM [inhibitor, single point] |
| CSc1cccc(NC(=O)N2CCC(c3cc(-c4cccc(C)c4)n[nH]3)CC2)c1 | inactive |
| Cc1ccccc1CNC(=O)c1csc([C@@H]2O[C@H](CO)[C@@H](O)[C@H]2O)n1 | inconclusive: 79.4 µM [inhibitor, partial curve, poor fit] |
| COCCN(Cc1cccs1)C(=O)COc1ccc2c(C)cc(=O)oc2c1 | inconclusive: 50.1 µM [inhibitor, partial curve, poor fit] |
| Cc1ccc(S(=O)(=O)NCc2ccc(C(=O)N3CCc4ccccc4C3)cc2)cc1 | inactive |
| Cc1[nH]c2ccccc2c1C(c1ccccn1)N1CCC(C)CC1 (configuration not stated) | inactive |
| CC(NC(=O)c1ccccc1F)c1nnc(SCC(=O)NC2=NCCS2)n1C (configuration not stated) | inconclusive: 50.1 µM [inhibitor, partial curve] |
| O=C(c1ccccn1)N1CCCC(c2nc(CCOCC3CC3)no2)C1 (configuration not stated) | inconclusive: 4.47 µM [inhibitor, full curve] |
| COc1ccc(-c2onc(C)c2-c2ccc(OC)c(OC)c2)c(O)c1 | inconclusive: 79.4 µM [inhibitor, single point] |

A run of entries taken from the entries so far, for reference:

| Compound | Potency |
| --- | --- |
| Cc1ccc(NC(=O)C2(c3cccs3)CCOCC2)cc1Cl | inactive |
| CCOc1cc(/C=C(\C#N)C(=O)Nc2cccc(C(=O)O)c2)cc(Br)c1OC(=O)c1ccc(OC)cc1 | active: 44.7 µM |
| COc1ncc2nc(-c3ccc(F)cc3)c(=O)n(Cc3ccc(F)cc3)c2n1 | inconclusive: 89.1 µM [inhibitor, partial curve, poor fit] |
